# Assay results

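Counterscreen z-score for each compound in a recombinant Hck-YEEI:Nef Z-Lyte FRET kinase setup using a p-Tyr peptide, with a 50 min kinase step and 60 min development. Compounds were tested at a single concentration of 10 µM. The number is a z-score for the p-Tyr peptide counterscreen; higher values mean a stronger counterscreen signal, and values above 3 mark a compound as likely interfering.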

Common to all entries: measured here: p-Tyr peptide counterscreen. Part of the compounds only, not a random draw; the main read-out is not listed here.

| compound | z-score |
|---|---|
| `Clc1ccc(C2=NN(c3ccccc3)C(c3ccco3)C2)cc1` (stereo not shown) | 43.68 |
| `O=C(Nc1ccc(-c2nc3ccccc3[nH]2)cc1)c1c(F)c(F)c(F)c(F)c1F` | 0.008186 |
| `O=C(N/N=C/c1coc2ccccc2c1=O)c1ccccc1` | -0.8731 |
| `Cc1ccc(NS(=O)(=O)c2ccc(C(=O)N3CCN(c4ccccn4)CC3)cc2)cc1` | 1.681 |
| `CCOc1ccccc1C(=O)Nc1ccc2nc(N3CCN(c4ncccn4)CC3)cc(C)c2c1` | 2.904 |
| `O=C(Nc1cccc(-c2nc3cccnc3s2)c1)c1ccc(Cl)nc1` | -0.2434 |
| `CCOc1cc(/C=C2\N=C(SCC)SC2=O)cc([N+](=O)[O-])c1OC(C)=O` | 1.316 |
| `COc1ccc(-c2csc(NC(=O)c3ccccc3NS(=O)(=O)c3ccc(F)c(F)c3)n2)cc1` | -1.134 |
| `O=C(O)CCC(=O)NNc1ncnc2ccccc12` | -1.597 |
| `C/C(=N/NC(=O)c1cc2ccccc2cc1O)C1C(=O)c2ccccc2C1=O` | 2.206 |
| `COc1cc(-c2cc(=O)c3c(O)c(OC)c(OC)cc3o2)cc(OC)c1O` | -1.123 |
| `O=c1[nH]c(-c2ccc3c(c2)OCO3)nc2c1sc(=S)n2-c1ccccc1` | -1.238 |
| `Cc1ccc(/C=C2/SC(=S)N(c3ccc(S(=O)(=O)Nc4nccs4)cc3)C2=O)cc1` | -1.073 |
| `CCCCCCCCCCCCCCCCn1cc[n+](CC(C)=O)c1` | -1.731 |
| `Cc1ccc(-n2nc(-c3ccco3)cc2C(=O)O)c(C)c1` | -1.597 |
| `COc1ccc(C(=O)Nc2ccccc2-c2nnn(CC(=O)Nc3ccc4c(c3)OCCO4)n2)cc1` | 3.228 |
| `CC1=N/C(=C/c2ccco2)C(=O)O1` | -0.5571 |
| `O=c1cc(-c2ccccc2)nc2c(-c3ccccc3)c(C(F)(F)F)[nH]n12` | 0.205 |
| `Cc1cc(C(=O)COC(=O)c2cc(O)c3ccccc3c2O)c(C)n1CC1CCCO1` (stereo not shown) | -0.6252 |
| `N#Cc1c(-c2ccccc2Cl)c2c([nH]c1=O)-c1ccccc1OC2` | 29.28 |
| `N/C(=N\N=C\c1ccnc2ccccc12)SC1CC(=O)N(c2ccc(Br)cc2)C1=O` (stereo not shown) | -0.6344 |
| `Cc1nn(CC(=O)Nc2ccc3c(c2)oc2ccccc23)c(=O)c2ccccc12` | 2.371 |
| `COc1ccc2cc3cc(C(=O)Nc4ccc5c(c4)OCCO5)oc3nc2c1` | -1.221 |
| `COc1ccccc1N1C(=N)S/C(=C\c2ccc(-c3ccccc3C(=O)O)o2)C1=O` | -0.009679 |
| `CCOC(=O)/C(C#N)=C1/SC(CCO)C(=O)N1c1ccccc1` (stereo not shown) | 0.734 |
| `Cc1nc2cc(N3CCCCC3)c(NC(=O)c3ccncc3)cc2c(=O)n1Cc1ccc(Cl)cc1` | 0.4323 |
| `Cc1cccn2c(=O)c3cc(C(=O)NCc4ccco4)c(=N)n(CCOCCO)c3nc12` | 56.2 |
| `Cc1nnc(SCC(=O)N2N=C(c3ccc(Cl)cc3)CC2c2ccco2)[nH]c1=O` (stereo not shown) | 0.5992 |
| `O=c1[nH][nH]cc1C=Nc1ccc(Oc2ccccc2)cc1` | -0.4296 |
| `COc1ccc(S(=O)(=O)Nc2cc3c(cc2C(C)=O)OCO3)cc1` | -1.216 |
| `N#C/C(=C\c1ccc(OC(=O)c2cccs2)cc1)c1nc2ccccc2[nH]1` | -0.949 |
| `CCOC(=O)N1CCN(C(=O)c2ccc3c(=O)n(-c4ccc(F)cc4)c(=S)[nH]c3c2)CC1` | 0.09823 |
| `O=C1/C(=C/c2ccco2)SC(=S)N1c1cccnc1` | 0.8191 |
| `Cc1ccc(-c2csc3ncnc(Nc4ccc(C(=O)O)cc4)c23)cc1` | -0.3022 |
| `Cc1c(Cl)cccc1NS(=O)(=O)c1ccc2c(c1)C1C=CCC1C(c1ccc(C(=O)O)cc1)N2` (stereo not shown) | -1.904 |
| `CC[n+]1ccc(C)c2cc(SC(F)(F)F)ccc21` | 0.08652 |
| `COc1ccc(Br)cc1/C=C/C(=O)NC(=S)Nc1ccc(Cl)c(C(=O)O)c1` | -1.165 |
| `COc1cc(/C=C(/C#N)C(=O)Nc2ccccc2)ccc1OCc1ccc(C(=O)O)cc1` | 0.3795 |
| `NN1C(=O)/C(=C\c2ccco2)SC1=S` | -2.07 |
| `CC(=O)OCC1=C(C(=O)O)N2C(=O)C(NC(=O)CCn3nc(C(F)(F)F)c(Br)c3C3CC3)C2SC1` (stereo not shown) | 0.03925 |
| `O=C(N=Nc1c(O)[nH]c2ccc(Br)cc12)c1cc(-c2cccs2)nc2ccccc12` | -1.222 |
| `COc1ccc(NC(=O)c2nc[nH]c2C(=O)N[C@@H](C)C(=O)OC(C)(C)C)cc1` | -0.2578 |
| `Cc1ccc(-n2sc3ccccc3c2=O)cc1S(=O)(=O)N1CCCCC1` | 0.9385 |
| `N#Cc1ncn(-c2ccc(Oc3ccccc3)cc2)c1N` | -0.3473 |
| `Cc1ccc(CN2CCN(Cc3cnc(N4CCOCC4)s3)CC2CCO)o1` (stereo not shown) | -0.4711 |
| `COc1ccc(/C=N/NC(=O)c2cc(C(C)(C)C)[nH]n2)cc1COc1ccc(F)cc1F` | -0.7809 |
| `COc1cc2[nH]c(=O)n(CCC(=O)N3CCN(c4cccc(C)c4C)CC3)c(=O)c2cc1OC` | 1.213 |
| `COc1ccccc1CN(Cc1nc2ccccc2c(=O)[nH]1)S(=O)(=O)c1ccc2ccccc2c1` | 1.968 |
| `Cc1ccc(S(=O)(=O)Nc2ccc(N(C)C)cc2)cc1` | 0.5213 |
| `Cc1cc(C2=NNC(=Nc3ccc(S(=O)(=O)N4CCOCC4)cc3)SC2)c(C)n1C` | -1.457 |
| `CCOC(=O)c1ccc(NC(=O)Cn2ncc(Cl)c(Cl)c2=O)cc1` | 0.1485 |
| `COc1ccccc1NS(=O)(=O)c1cccc(NC(=O)c2sc3ccccc3c2Cl)c1` | 0.1745 |

For reference, 5 entries once more:

| compound | z-score |
|---|---|
| `Clc1ccc(C2=NN(c3ccccc3)C(c3ccco3)C2)cc1` (stereo not shown) | 43.68 |
| `Cc1ccc(CN2CCN(Cc3cnc(N4CCOCC4)s3)CC2CCO)o1` (stereo not shown) | -0.4711 |
| `C/C(=N/NC(=O)c1cc2ccccc2cc1O)C1C(=O)c2ccccc2C1=O` | 2.206 |
| `O=C(N=Nc1c(O)[nH]c2ccc(Br)cc12)c1cc(-c2cccs2)nc2ccccc12` | -1.222 |
| `O=C1/C(=C/c2ccco2)SC(=S)N1c1cccnc1` | 0.8191 |

The results are deposited in PubChem (AID463188; University of Pittsburgh Molecular Library Screening Center, 2010).